At least one peptide structure holds a part that was inferred or is arguable (an end, a ring closure or a residue). Where no end group is shown, it is not given here.
Experiments:
[1] = molecular target: HIV-1 RT dimerization (p66/p51) (Human immunodeficiency virus type 1 group M subtype B, UniProt P03366); experiment: HIV-1 RT dimerization in vitro; assay type: biochemical
HIV-1 BRU = experiment: RT activity assay of viral production in HIV-1 BRU-infected CEM cells; assay type: cell-based; details: HIV-1 BRU-infected cultured CEM cells
Experimental: FIG. 1: Effect of different concentrations of MPG/p7 (SEQ ID NO:1) on HIV-1 and HIV-2 in CEM cell cultures. CEM cells exposed to 100 μl of viral suspensions containing 1000×50% tissue culture infective dose (TCID50)/m1 of HIV-1 BRU (left panels) or HIV-2 ROD (right panels). a, HIV-infected cells were cultured in medium alone (white diamonds) or medium supplemented with MPG/p7 at 10^−7 M (black circles), 10^−8 M, (black up triangles), 10^−9 M (black diamonds), and 10^−10 M (black squares). b, As controls, HIV-infected cells were treated with either azidothymidine (AZT: 10^−5 M) (white squares) or peptide MPG/p237 (SEQ ID NO:5) at 10^−6 M (black down triangles). Viral production was monitored by measuring RT activity twice a week post infection. Culture supernatants from virus-free CEM were tested as a control (white circles, FIG. 1b).
RI activity assay. CEM cells were incubated for 30 mm at 4° C. with 100 μl of stock HIV preparation corresponding to 1000×50% tissue culture infective dose (TCID50)/ml, then cells were washed five times and cultured at 5×10^5 cell/ml in 24-well microplates in the presence or absence of MPG/p7 (at 10^−8 and 10^−7 M) or AZT (AZT was purchased from Boehringer Mannheim, Germany) additive. Viral production was monitored twice a week by measuring reverse transcriptase activity in 1 ml of cell-free supernatant as previously described (39).

## KETWETWWTE [p7, KETWETWWTE]
[1]
  inhibition of HIV-1 RT dimerization in vitro: powerful inhibitor
HIV-1 BRU
  concentration that abolishes the production of viral particles: 10^−7 M
